Measurements from publication PMC11897865.
No constants are given. Whether binding was seen depends on the method and setting. Binding seen in cells or lysates may run through a third protein. Some results given as binding are weak or reduced against the parent protein; the word gives no strength. Values belong to the substance of their own block, whether it stands above or below them.

The chains behind the UniProt entries cited, without tags or fusion partners. Where a name states a change or a piece, a line headed by the entry shows the natural chain unless it says otherwise. Residues count along the entry.
UniProt P31424, residues 21-1203: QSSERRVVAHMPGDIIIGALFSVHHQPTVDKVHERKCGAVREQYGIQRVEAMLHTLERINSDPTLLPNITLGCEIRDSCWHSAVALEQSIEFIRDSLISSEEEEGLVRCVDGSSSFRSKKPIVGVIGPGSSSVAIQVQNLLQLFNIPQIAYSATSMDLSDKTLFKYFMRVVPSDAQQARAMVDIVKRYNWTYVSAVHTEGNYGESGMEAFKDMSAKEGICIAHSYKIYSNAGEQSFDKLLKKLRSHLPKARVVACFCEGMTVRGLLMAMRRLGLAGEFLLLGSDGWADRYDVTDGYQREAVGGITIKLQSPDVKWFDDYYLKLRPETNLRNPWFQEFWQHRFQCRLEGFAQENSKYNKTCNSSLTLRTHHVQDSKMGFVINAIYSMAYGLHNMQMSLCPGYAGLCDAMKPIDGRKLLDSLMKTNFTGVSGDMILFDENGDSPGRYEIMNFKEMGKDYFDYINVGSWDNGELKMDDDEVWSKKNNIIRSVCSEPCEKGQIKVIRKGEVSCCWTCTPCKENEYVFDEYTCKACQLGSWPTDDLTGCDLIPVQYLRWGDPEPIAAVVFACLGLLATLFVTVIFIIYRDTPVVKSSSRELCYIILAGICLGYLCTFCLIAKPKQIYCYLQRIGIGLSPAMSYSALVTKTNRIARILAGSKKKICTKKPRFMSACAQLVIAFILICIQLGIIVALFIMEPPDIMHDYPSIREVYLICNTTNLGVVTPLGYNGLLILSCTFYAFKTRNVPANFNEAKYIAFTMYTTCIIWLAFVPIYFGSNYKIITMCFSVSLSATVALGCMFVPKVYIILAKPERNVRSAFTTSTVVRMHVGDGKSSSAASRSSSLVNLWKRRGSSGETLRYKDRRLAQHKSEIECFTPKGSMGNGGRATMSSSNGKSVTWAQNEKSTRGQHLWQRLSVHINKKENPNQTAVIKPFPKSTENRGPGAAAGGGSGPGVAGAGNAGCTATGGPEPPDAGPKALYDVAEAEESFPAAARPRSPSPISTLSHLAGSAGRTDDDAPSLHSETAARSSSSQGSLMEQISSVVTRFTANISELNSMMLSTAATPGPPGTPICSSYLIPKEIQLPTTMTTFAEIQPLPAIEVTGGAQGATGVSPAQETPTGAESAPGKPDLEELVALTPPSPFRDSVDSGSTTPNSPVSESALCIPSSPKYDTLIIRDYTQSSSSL
UniProt P30543: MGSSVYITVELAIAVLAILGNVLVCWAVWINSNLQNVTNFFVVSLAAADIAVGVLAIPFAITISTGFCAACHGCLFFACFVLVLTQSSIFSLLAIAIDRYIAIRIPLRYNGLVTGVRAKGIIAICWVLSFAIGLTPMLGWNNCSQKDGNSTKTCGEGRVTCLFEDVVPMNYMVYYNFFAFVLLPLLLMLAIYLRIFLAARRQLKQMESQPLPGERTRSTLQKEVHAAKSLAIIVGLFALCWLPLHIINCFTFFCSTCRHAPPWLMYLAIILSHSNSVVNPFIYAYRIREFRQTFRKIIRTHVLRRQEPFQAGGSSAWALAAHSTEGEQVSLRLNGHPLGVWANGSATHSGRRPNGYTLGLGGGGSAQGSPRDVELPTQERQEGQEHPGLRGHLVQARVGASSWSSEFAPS

Columns and labels:
[1] = biological target: mGluR5 (rat (endogenous in primary rat microglia)) (UniProt P31424); experiment: co-IP; anti-A2aR or anti-mGluR5 antibody (or IgG) on Protein A/G magnetic beads, lysate of primary rat microglia treated with chronic hypoxia, overnight at 4°C; Western blot
[2] = biological target: Adenosine A2A receptor (rat (endogenous in primary rat microglia)) (UniProt P30543); experiment: proximity ligation; in situ PLA (Duolink) on fixed primary rat microglia; blank, 20 or 40 uM glutamate, hypoxia, hypoxia with 20 or 40 uM glutamate; confocal microscopy
[3] = biological target: Adenosine A2A receptor (rat (endogenous in primary rat microglia)) (UniProt P30543); experiment: co-IP; anti-A2aR or anti-mGluR5 antibody (or IgG) on Protein A/G magnetic beads, lysate of primary rat microglia treated with chronic hypoxia, overnight at 4°C; Western blot
A2aR-LgBit = A2aR-LgBit (UniProt P30543); experiment: split reporter; HEK293ET cells cotransfected with mGluR5-SmBit and A2aR-LgBit plasmids, 48 h, Nano-Glo Live Cell Reagent, luminescence; saturation with rising plasmid concentrations; rising glutamate concentrations raised the signal

binding [1]: binds
Substance: Adenosine A2A receptor (from UniProt P30543 1-410)

binding [2]: binds
binding [3]: binds
Substance: mGluR5 (from UniProt P31424 21-1203) (receptor)

binding (A2aR-LgBit): binds
Substance: mGluR5-SmBit (from UniProt P31424 21-1203) (receptor)
